Source: paper PMC5715595 (British Journal of Pharmacology, 2017)

The chains behind the UniProt entries cited, without tags or fusion partners.
UniProt Q14524, whole entry: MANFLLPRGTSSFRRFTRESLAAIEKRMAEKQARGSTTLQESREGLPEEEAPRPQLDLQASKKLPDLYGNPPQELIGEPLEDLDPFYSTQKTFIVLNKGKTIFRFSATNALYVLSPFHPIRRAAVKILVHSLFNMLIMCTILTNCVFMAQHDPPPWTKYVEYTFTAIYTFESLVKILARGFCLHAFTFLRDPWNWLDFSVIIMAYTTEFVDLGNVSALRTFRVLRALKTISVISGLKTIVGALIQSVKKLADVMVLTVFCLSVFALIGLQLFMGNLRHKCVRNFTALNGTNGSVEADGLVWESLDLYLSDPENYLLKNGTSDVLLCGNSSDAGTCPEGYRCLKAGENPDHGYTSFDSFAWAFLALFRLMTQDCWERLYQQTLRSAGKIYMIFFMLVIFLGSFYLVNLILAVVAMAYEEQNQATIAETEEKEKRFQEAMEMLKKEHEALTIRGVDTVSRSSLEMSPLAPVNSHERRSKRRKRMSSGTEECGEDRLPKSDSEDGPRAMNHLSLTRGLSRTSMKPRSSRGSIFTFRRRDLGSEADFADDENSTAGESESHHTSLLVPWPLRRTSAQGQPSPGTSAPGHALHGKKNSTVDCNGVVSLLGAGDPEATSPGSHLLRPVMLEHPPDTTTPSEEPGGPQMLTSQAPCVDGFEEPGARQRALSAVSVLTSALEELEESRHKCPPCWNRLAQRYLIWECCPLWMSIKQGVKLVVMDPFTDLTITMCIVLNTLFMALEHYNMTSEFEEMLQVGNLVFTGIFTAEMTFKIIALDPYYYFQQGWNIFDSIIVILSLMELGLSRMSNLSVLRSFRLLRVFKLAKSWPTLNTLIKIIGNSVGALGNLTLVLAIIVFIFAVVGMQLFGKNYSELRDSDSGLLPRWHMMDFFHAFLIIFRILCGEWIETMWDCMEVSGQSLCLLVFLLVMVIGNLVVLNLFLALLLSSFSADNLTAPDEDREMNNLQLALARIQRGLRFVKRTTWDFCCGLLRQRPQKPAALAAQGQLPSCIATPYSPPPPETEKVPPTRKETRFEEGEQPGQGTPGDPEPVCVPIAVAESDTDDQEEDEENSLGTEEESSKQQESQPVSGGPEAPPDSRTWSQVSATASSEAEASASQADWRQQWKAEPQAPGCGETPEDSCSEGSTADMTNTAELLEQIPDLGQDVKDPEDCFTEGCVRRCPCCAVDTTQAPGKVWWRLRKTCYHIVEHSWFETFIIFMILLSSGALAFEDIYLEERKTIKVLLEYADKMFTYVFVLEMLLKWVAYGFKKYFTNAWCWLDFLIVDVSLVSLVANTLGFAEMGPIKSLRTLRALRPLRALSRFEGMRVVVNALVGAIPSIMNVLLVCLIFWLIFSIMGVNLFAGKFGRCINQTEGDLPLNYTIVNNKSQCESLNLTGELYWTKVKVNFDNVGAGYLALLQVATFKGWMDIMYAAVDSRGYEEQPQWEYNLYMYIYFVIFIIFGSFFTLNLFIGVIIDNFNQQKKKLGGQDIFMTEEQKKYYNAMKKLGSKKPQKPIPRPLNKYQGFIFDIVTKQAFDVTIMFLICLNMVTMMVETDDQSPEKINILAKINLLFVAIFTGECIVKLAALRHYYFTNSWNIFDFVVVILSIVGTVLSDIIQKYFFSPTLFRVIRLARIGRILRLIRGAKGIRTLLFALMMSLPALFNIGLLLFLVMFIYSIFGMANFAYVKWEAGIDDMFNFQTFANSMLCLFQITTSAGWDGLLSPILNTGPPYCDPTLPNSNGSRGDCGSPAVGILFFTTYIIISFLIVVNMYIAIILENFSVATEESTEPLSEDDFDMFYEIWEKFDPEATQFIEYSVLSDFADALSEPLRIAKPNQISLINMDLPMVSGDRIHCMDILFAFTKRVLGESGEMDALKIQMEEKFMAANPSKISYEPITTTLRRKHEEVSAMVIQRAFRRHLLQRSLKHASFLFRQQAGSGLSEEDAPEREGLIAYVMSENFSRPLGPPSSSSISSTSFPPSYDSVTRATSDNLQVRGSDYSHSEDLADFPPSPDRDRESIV

Legend:
Experiment in all cases: in vitro
Conditions in all cases: pH 7.4
[1] = molecular target: NaV1.5 (INa), fast inactivated state (Homo sapiens, UniProt Q14524)
Procedure: (§1) and CiPA Initiative Studies
(§2) =============================================================
(§3) In vitro studies on other ion channels […]
(§4) through NaV1.5, KV4.3, KV7.1/mink, Kir2.1, KV1.5, CaV1.2 and CaV3.2 channels.
(§5) 35-mm dish culture in the conditions mentioned in standard cell culture conditions. Experiments were performed with a cell density enabling isolated cells for patch clamping. Cells were continuously superfused with extracellular medium (1-2 mL∙minute-1) at room temperature.
(§6) D-glucose 10, HEPES 10 and the final pH adjusted to 7.4±0.02 with NaOH for recording NaV1.5, KV4.3, KV7.1/mink, Kir2.1, KV1.5 and CaV3.2 currents. It was (in mM): NaCl 110, KCl 4, BaCl2 20, MgCl2 1, D-glucose 20, HEPES 10 and the final pH adjusted to 7.4 ± 0.02 with NaOH for recording the CaV1.2 current. Compositions of the intracellular solution to fill the pipette are […]
(§7) Composition of intracellular solutions used to fill pipette to record currents through NaV1.5, KV4.3, KV7.1/mink, Kir2.1, KV1.5, CaV1.2 and CaV3.2 channels
(§8) Solution to fill the pipette (mM)
(§9) Creatine-phospho kinase 50 U∙mL-1
(§10) After formation of a Gigaohm seal between the patch electrodes and individual cells (pipette resistance range: 2.0 MΩ - 7.0 MΩ; seal resistance range: > 1 GΩ) the cell membrane across the pipette tip was ruptured to assure electrical access to the cell interior (whole-cell patch-configuration). In case the quality of the seal was poor, the process of seal formation was repeated with a different cell and a new pipette. As soon as a stable seal was established outward tail currents were measured upon pulses described in the Table S2. If current density was judged to be too low for measurement, another cell was recorded. […]
(§11) voltage stimulation protocol indicated in the next table continuously run until the steady-state level of block was reached.
(§12) Stimulation conditions used to record currents through NaV1.5, KV4.3, KV7.1/mink, Kir2.1, KV1.5, CaV1.2 and CaV3.2 channels
(§13) Ion channel Holding potential Pulse / duration Frequency Reference compound […]
(§14) (resting / fast / slow sweeps at one (10 mM) inactivated concentration)

[2] = molecular target: NaV1.5 (INa), resting state (Homo sapiens, UniProt Q14524)
Procedure: as §1, §2, §3, §4, §5, §6, §7, §8, §9, §10, §11, §12, §13, §14

[3] = molecular target: NaV1.5 (INa), slow inactivated state (Homo sapiens, UniProt Q14524)
Procedure: as §1, §2, §3, §4, §5, §6, §7, §8, §9, §10, §11, §12, §13, §14

CCN(CC)CC(=O)Nc1c(C)cccc1C [Lidocaine, reference compound]
inhibition at 10 mM [1]: 99%
inhibition at 10 mM [2]: 99%
inhibition at 10 mM [3]: 93%
